{"sequences": {"note": "Chains of the proteins cited; added tags and fusions are not shown. Residues count along the entry.", "UniProt P41586, residues 21-417": "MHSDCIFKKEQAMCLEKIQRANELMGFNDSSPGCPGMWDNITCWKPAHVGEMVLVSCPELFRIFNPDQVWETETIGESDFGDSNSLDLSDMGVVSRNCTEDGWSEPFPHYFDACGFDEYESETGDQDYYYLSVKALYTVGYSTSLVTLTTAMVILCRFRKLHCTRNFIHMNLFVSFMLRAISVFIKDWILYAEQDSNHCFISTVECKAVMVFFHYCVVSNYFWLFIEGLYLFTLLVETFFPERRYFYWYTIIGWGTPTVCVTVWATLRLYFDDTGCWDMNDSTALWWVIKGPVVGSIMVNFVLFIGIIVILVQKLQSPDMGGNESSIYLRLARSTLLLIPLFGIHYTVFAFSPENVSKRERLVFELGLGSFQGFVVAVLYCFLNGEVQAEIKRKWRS"}, "source": "paper doi:10.1101/2019.12.23.887737", "molecular_target": "human PAC1R, C-terminally truncated after S417 (cryo-EM construct) (human) (UniProt P41586)", "assay": "cryo-EM structure", "note": "Results are given in words; binding and its absence hold for the method and conditions named."}
{"substance": "human PAC1R, C-terminally truncated after S417 (cryo-EM construct) (from UniProt P41586 21-417) (receptor)", "values": [{"measurement": "binding", "value": "no binding"}]}
